{"source": "PubChem BioAssay AID2685", "about": "(National Center for Advancing Translational Sciences (NCATS), 2010)", "experiment": "qHTS Assay for Lipid Storage Modulators in Drosophila S3 Cells;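 for cell number change: cells counted by Cell Tracker Red CMTPX staining in the red channel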", "settings": "BODIPY lipid droplet fluorescence, 18-24 h; for cell number change: measured here: cell count max response, cells fed with added oleic acid", "method_in_brief": "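Laser-scanning cytometry quantifies lipid droplet accumulation (500–530 nm total intensity; droplet/cell object ratio) in oleic acid-fed (400 uM added) Drosophila S3 cells treated with a concentration series. 20 uM Triacsin C defined 100% inhibition.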", "key": {"[1]": {"settings": "measured here: lipid fluorescence (Fed channel) AC50, cells fed with added oleic acid"}, "[2]": {"settings": "measured here: cell number channel AC50, cells fed with added oleic acid"}}, "note": "This is one part of the list. These are further read-outs of the screen, such as a control signal, another cell line or another target. No call is given for them. The list favours compounds with an active or inconclusive main result. Potencies come from curve fits of mixed quality, noted in brackets.", "data": [{"smiles": "COc1ccc(NC(=O)C(=O)NCCC2CCCCN2S(=O)(=O)c2cccs2)cc1", "note": "(configuration not stated)", "values": [{"measurement": "cell number change", "value": 5.21, "unit": "%"}, {"measurement": "AC50", "setting": "[1]", "value": "0.184 µM [rising, full curve]"}]}, {"smiles": "O=C1SCC(c2ccc(Cl)cc2Cl)=NN1Cc1nnc(-c2ccccc2)o1", "values": [{"measurement": "cell number change", "value": 33, "unit": "%"}, {"measurement": "AC50", "setting": "[2]", "value": "7.31 µM [rising, partial curve]"}, {"measurement": "AC50", "setting": "[1]", "value": "29.1 µM [rising, single point]"}]}, {"smiles": "O=C(CCCO)c1ccc2c(c1)OCCO2", "values": [{"measurement": "AC50", "setting": "[1]", "value": "0.0058 µM [falling, full curve, poor fit]"}]}, {"smiles": "CC(=O)O[C@@]1(C)C[C@@H](O)[C@]2(O)C=CO[C@@H](O[C@@H]3O[C@H](CO)[C@@H](O)[C@H](O)[C@H]3O)[C@@H]21", "values": [{"measurement": "cell number change", "value": -16.6, "unit": "%"}, {"measurement": "AC50", "setting": "[1]", "value": "16.4 µM [falling, single point]"}]}, {"smiles": "CCCCOc1ccc(CSc2n[nH]c(C)n2)cc1", "values": [{"measurement": "AC50", "setting": "[1]", "value": "18.4 µM [rising, single point]"}]}, {"smiles": "O=C(Nc1cccnc1)c1ccc(Cl)c(S(=O)(=O)N2CCCCC2)c1", "values": [{"measurement": "cell number change", "value": -4.95, "unit": "%"}, {"measurement": "AC50", "setting": "[1]", "value": "29.1 µM [falling, single point]"}]}, {"smiles": "Cc1csc(Nc2ccc(C(=O)O)cc2)n1", "values": [{"measurement": "cell number change", "value": 19.3, "unit": "%"}, {"measurement": "AC50", "setting": "[2]", "value": "4.61 µM [falling, single point]"}, {"measurement": "AC50", "setting": "[1]", "value": "5.8 µM [falling, single point]"}]}, {"smiles": "CC(C(=O)NCCc1ccc(Cl)cc1)n1c(=O)c2cccn2c2cccnc21", "note": "(configuration not stated)", "values": [{"measurement": "AC50", "setting": "[1]", "value": "0.731 µM [falling, full curve]"}]}, {"smiles": "COc1ccc(CCCNC(=O)CC#N)cc1OC", "values": [{"measurement": "cell number change", "value": -25.1, "unit": "%"}, {"measurement": "AC50", "setting": "[2]", "value": "0.00411 µM [falling, full curve, poor fit]"}, {"measurement": "AC50", "setting": "[1]", "value": "0.461 µM [falling, full curve, poor fit]"}]}, {"smiles": "S=c1[nH]nc(C2CCCCC2)o1", "values": [{"measurement": "cell number change", "value": -1.36, "unit": "%"}, {"measurement": "AC50", "setting": "[2]", "value": "0.731 µM [falling, full curve]"}]}, {"smiles": "CCOC(=O)c1c(N)sc(C(=O)Nc2ccccc2F)c1C", "values": [{"measurement": "cell number change", "value": 8.59, "unit": "%"}, {"measurement": "AC50", "setting": "[1]", "value": "0.103 µM [rising, full curve, poor fit]"}]}, {"smiles": "COc1ccc(CN(C)C(=O)c2[nH]c(C)c(C(C)=O)c2C)c(OC)c1OC", "values": [{"measurement": "cell number change", "value": 16.2, "unit": "%"}]}, {"smiles": "Cc1ccc(Cn2ncc3c(NCCN(C)C)ncnc32)cc1", "values": [{"measurement": "cell number change", "value": 31.7, "unit": "%"}, {"measurement": "AC50", "setting": "[2]", "value": "0.00411 µM [rising, full curve, poor fit]"}]}, {"smiles": "CCCc1cc(C(=O)Nc2c(C)n(C)n(-c3ccccc3)c2=O)no1", "values": [{"measurement": "AC50", "setting": "[1]", "value": "29.1 µM [rising, single point]"}]}, {"smiles": "Cn1c(=O)c2c(nc(NCc3ccccc3)n2CC(=O)NCc2ccccc2)n(C)c1=O", "values": [{"measurement": "cell number change", "value": -1.75, "unit": "%"}, {"measurement": "AC50", "setting": "[1]", "value": "0.731 µM [rising, single point]"}]}, {"smiles": "CSCCC(NS(=O)(=O)c1ccc(C)cc1)C(=O)NC1CCCCCC1", "note": "(configuration not stated)", "values": [{"measurement": "cell number change", "value": 7.33, "unit": "%"}, {"measurement": "AC50", "setting": "[1]", "value": "23.1 µM [rising, single point]"}]}, {"smiles": "CC(=O)Nc1ccc(NS(C)(=O)=O)cc1", "values": [{"measurement": "cell number change", "value": -42.3, "unit": "%"}, {"measurement": "AC50", "setting": "[2]", "value": "3.66 µM [falling, full curve]"}, {"measurement": "AC50", "setting": "[1]", "value": "3.66 µM [falling, full curve]"}]}, {"smiles": "CCC(C)C(NC(=O)c1ccccc1NC(=O)c1ccc(OC)cc1)C(=O)NCCCn1ccnc1", "note": "(configuration not stated)", "values": [{"measurement": "cell number change", "value": 4.58, "unit": "%"}]}, {"smiles": "NS(=O)(=O)c1ccc(NC(=O)CCC(=O)c2ccc(Cl)s2)cc1", "values": [{"measurement": "cell number change", "value": -23.8, "unit": "%"}, {"measurement": "AC50", "setting": "[1]", "value": "1.3 µM [rising, partial curve]"}]}, {"smiles": "COc1ccc(-n2c(C)cc(/C=C3\\C(=N)N4N=C(CC(=O)N5CCOCC5)SC4=NC3=O)c2C)cc1", "values": [{"measurement": "cell number change", "value": 30.9, "unit": "%"}, {"measurement": "AC50", "setting": "[2]", "value": "1.84 µM [rising, full curve]"}, {"measurement": "AC50", "setting": "[1]", "value": "0.58 µM [rising, single point]"}]}, {"smiles": "COc1ccc(NC(=O)C(c2ccccc2)N(C)C(=O)CNC(C)=O)cc1", "note": "(configuration not stated)", "values": [{"measurement": "cell number change", "value": -11.2, "unit": "%"}]}, {"smiles": "O=c1cc(O)nc(-c2ccccc2)s1", "values": [{"measurement": "cell number change", "value": 35, "unit": "%"}, {"measurement": "AC50", "setting": "[1]", "value": "7.31 µM [rising, partial curve, poor fit]"}]}, {"smiles": "Cn1c(-c2ccsc2)c(-c2cccs2)c2cc(-c3cccc4[nH]ccc34)ccc21", "values": [{"measurement": "cell number change", "value": 18.4, "unit": "%"}]}, {"smiles": "Cc1ccc(NC(=S)c2nc3ccccc3[nH]2)c(C)c1", "values": [{"measurement": "cell number change", "value": 1.6, "unit": "%"}]}, {"smiles": "O=[N+]([O-])c1ncccc1OCc1ccc(-c2ccccc2)cc1", "values": [{"measurement": "cell number change", "value": -8.33, "unit": "%"}]}, {"smiles": "CCOc1ccccc1CNC(=O)C1CCN(C(=O)c2sccc2-n2cccc2)CC1", "values": [{"measurement": "cell number change", "value": -27.2, "unit": "%"}, {"measurement": "AC50", "setting": "[1]", "value": "0.00461 µM [rising, full curve, poor fit]"}]}, {"smiles": "COc1ccc(C(C#N)(CC(=O)O)c2cnccn2)cc1OC", "note": "(configuration not stated)", "values": [{"measurement": "cell number change", "value": 19, "unit": "%"}, {"measurement": "AC50", "setting": "[1]", "value": "0.731 µM [rising, full curve, poor fit]"}]}, {"smiles": "Cc1ccoc1C(=O)Nc1ccc(CC(=O)O)cc1", "values": [{"measurement": "cell number change", "value": -29.5, "unit": "%"}, {"measurement": "AC50", "setting": "[2]", "value": "1.46 µM [falling, full curve, poor fit]"}, {"measurement": "AC50", "setting": "[1]", "value": "3.66 µM [falling, full curve]"}]}, {"smiles": "COc1ccc(C2=C(c3ccc([N+](=O)[O-])cc3)C(=O)OC2)cc1", "values": [{"measurement": "cell number change", "value": 25.1, "unit": "%"}, {"measurement": "AC50", "setting": "[1]", "value": "0.651 µM [rising, single point]"}]}, {"smiles": "C/C(=N\\Nc1nc(-c2ccc(C)cc2C)cs1)c1cc2ccccc2oc1=O", "values": [{"measurement": "cell number change", "value": 16.3, "unit": "%"}, {"measurement": "AC50", "setting": "[1]", "value": "25.9 µM [rising, partial curve, poor fit]"}]}, {"smiles": "O=C1CCCN1CCCNc1ncnc2c1[nH]c1ccc(Cl)cc12", "values": [{"measurement": "AC50", "setting": "[2]", "value": "3.26 µM [rising, partial curve]"}, {"measurement": "AC50", "setting": "[1]", "value": "3.66 µM [rising, partial curve]"}]}, {"smiles": "CCCCN(C)C(=O)c1cc2cc3ccc(OC)cc3nc2s1", "values": [{"measurement": "cell number change", "value": -5.74, "unit": "%"}, {"measurement": "AC50", "setting": "[1]", "value": "4.61 µM [falling, full curve, poor fit]"}]}, {"smiles": "CCOP(=O)(OCC)C(NC(=O)NS(=O)(=O)c1ccc(C)cc1)c1ccccc1", "note": "(configuration not stated)", "values": [{"measurement": "AC50", "setting": "[1]", "value": "0.291 µM [rising, partial curve]"}]}, {"smiles": "O=C(Cn1ncc2c1-c1ccccc1OC2)N(Cc1ccco1)C1CCCCC1", "values": [{"measurement": "cell number change", "value": 18.2, "unit": "%"}, {"measurement": "AC50", "setting": "[2]", "value": "1.16 µM [rising, single point]"}, {"measurement": "AC50", "setting": "[1]", "value": "9.2 µM [rising, single point]"}]}, {"smiles": "COc1cccc(C2c3[nH]c4ccccc4c3C[C@H]3C(=O)N(CCCO)CC(=O)N23)c1OC", "note": "(some centres not stated)", "values": [{"measurement": "cell number change", "value": 22.5, "unit": "%"}, {"measurement": "AC50", "setting": "[1]", "value": "6.51 µM [rising, single point]"}]}, {"smiles": "O=C(CSc1nc2ccccc2o1)Nc1ccc(N2CCOCC2)c(Cl)c1", "values": [{"measurement": "cell number change", "value": -31.4, "unit": "%"}, {"measurement": "AC50", "setting": "[2]", "value": "11.6 µM [falling, partial curve]"}, {"measurement": "AC50", "setting": "[1]", "value": "16.4 µM [falling, partial curve, poor fit]"}]}, {"smiles": "COc1cc(/C=N/NC(=O)c2c(C)nc3ccc(Cl)cn23)cc(OC)c1OC", "values": [{"measurement": "cell number change", "value": -8.42, "unit": "%"}]}, {"smiles": "Fc1ccc(C2CCCCN2Cc2nc(CC3CC3)no2)cc1", "note": "(configuration not stated)", "values": [{"measurement": "cell number change", "value": 5.58, "unit": "%"}, {"measurement": "AC50", "setting": "[1]", "value": "0.116 µM [rising, full curve, poor fit]"}]}]}
